This passage reports binding results from article PMC4305328.

Results are given in words; binding and its absence hold for the method and conditions named. Binding seen in cells or lysates may run through a third protein. Sequences can lack the tags named with a protein.

The assay deals with T1, Fkh2-YFP (C. albicans) (UniProt Q5A7S7).
T1 sequence: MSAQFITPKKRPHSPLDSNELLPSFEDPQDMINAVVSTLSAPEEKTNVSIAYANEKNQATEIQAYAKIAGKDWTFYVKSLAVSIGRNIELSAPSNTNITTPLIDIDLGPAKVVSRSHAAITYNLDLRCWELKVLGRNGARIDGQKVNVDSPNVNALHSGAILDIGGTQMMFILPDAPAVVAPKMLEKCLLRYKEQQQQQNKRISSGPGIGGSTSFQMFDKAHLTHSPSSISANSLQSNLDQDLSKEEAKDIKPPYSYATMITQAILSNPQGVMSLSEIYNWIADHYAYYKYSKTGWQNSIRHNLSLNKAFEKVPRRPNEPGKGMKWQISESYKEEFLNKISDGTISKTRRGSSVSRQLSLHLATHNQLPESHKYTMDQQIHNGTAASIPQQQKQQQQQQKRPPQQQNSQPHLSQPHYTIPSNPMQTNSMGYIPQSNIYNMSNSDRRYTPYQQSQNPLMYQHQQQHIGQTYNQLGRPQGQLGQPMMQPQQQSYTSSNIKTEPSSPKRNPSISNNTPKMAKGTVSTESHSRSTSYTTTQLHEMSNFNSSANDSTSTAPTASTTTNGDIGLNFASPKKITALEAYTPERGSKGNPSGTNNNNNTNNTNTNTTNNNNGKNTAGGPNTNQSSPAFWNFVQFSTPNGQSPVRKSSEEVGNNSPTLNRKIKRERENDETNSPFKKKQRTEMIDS
The assay can be described thus: co-IP; Fkh2-YFP/GFP precipitated with anti-GFP antibody on protein-G Dynabeads from 2 mg total protein, 40 min post hyphal induction; washed twice with lysis buffer containing 150 mM NaCl; anti-HA blot; control strain expressing only the HA-tagged protein.

Take Srp1-HA (C. albicans): the binding entry was “no binding”.
